# Data reported in the supplement of paper PMC6411743.
# Chains of the proteins cited; added tags and fusions are not shown. Lines headed by an entry give the natural chain unless they say otherwise; changes in a name come on top.
# UniProt P62942, whole entry: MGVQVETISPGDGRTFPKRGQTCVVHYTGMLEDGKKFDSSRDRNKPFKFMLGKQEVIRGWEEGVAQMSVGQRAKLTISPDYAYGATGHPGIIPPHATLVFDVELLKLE
# UniProt P63010: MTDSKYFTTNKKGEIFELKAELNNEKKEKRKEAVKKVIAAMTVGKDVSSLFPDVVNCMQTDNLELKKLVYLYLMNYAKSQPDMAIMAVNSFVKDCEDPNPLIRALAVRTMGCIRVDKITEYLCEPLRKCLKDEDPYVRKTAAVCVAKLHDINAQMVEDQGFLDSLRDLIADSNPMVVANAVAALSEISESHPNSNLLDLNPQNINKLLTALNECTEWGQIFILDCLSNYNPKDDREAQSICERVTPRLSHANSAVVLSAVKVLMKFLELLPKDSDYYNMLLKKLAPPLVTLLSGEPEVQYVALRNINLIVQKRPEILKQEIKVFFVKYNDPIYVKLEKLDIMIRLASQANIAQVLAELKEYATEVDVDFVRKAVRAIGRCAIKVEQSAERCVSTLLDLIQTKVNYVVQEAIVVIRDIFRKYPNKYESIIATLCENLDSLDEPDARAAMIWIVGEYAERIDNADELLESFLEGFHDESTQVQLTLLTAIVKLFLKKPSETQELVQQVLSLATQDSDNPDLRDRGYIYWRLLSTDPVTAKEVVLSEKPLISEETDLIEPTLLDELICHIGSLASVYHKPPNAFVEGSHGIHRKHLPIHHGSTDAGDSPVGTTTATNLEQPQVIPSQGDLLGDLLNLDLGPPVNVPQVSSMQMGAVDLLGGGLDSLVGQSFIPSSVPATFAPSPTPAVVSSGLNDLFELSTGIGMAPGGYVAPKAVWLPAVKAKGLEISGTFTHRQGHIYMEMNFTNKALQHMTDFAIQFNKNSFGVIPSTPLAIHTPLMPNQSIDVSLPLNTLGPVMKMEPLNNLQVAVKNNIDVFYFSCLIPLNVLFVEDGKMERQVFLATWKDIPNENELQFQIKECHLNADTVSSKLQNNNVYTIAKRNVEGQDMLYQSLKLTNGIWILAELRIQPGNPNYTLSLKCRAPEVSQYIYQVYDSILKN
# UniProt Q00403, whole entry: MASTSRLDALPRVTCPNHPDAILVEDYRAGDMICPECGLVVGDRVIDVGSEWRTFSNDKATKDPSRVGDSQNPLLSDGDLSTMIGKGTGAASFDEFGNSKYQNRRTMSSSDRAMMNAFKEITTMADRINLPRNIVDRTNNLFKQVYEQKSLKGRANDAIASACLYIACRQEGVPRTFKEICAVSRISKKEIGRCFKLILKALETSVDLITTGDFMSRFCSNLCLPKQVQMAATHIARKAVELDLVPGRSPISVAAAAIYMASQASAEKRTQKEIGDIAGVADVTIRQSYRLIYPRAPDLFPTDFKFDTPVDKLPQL
# UniProt P61966: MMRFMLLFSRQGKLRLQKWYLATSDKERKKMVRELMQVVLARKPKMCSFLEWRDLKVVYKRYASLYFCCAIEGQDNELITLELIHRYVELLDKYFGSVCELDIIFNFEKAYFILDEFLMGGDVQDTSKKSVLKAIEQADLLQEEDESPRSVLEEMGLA
# UniProt P67936, whole entry: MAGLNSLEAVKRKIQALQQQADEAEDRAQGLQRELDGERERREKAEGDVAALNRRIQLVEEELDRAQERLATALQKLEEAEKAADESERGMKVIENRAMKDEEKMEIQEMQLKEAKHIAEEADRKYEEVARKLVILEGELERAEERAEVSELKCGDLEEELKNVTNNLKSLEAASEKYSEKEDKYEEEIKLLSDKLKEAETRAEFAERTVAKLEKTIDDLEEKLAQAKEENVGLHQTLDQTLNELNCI
# UniProt P62834: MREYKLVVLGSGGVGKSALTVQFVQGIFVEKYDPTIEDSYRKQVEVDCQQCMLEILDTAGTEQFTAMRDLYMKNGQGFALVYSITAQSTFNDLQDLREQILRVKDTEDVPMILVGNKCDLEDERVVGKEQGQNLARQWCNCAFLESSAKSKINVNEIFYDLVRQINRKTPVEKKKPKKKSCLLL
# UniProt P61769, whole entry: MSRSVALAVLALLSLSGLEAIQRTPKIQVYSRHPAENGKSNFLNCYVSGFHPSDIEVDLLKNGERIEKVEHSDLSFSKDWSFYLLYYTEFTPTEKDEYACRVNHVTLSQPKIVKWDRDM
# UniProt P55265: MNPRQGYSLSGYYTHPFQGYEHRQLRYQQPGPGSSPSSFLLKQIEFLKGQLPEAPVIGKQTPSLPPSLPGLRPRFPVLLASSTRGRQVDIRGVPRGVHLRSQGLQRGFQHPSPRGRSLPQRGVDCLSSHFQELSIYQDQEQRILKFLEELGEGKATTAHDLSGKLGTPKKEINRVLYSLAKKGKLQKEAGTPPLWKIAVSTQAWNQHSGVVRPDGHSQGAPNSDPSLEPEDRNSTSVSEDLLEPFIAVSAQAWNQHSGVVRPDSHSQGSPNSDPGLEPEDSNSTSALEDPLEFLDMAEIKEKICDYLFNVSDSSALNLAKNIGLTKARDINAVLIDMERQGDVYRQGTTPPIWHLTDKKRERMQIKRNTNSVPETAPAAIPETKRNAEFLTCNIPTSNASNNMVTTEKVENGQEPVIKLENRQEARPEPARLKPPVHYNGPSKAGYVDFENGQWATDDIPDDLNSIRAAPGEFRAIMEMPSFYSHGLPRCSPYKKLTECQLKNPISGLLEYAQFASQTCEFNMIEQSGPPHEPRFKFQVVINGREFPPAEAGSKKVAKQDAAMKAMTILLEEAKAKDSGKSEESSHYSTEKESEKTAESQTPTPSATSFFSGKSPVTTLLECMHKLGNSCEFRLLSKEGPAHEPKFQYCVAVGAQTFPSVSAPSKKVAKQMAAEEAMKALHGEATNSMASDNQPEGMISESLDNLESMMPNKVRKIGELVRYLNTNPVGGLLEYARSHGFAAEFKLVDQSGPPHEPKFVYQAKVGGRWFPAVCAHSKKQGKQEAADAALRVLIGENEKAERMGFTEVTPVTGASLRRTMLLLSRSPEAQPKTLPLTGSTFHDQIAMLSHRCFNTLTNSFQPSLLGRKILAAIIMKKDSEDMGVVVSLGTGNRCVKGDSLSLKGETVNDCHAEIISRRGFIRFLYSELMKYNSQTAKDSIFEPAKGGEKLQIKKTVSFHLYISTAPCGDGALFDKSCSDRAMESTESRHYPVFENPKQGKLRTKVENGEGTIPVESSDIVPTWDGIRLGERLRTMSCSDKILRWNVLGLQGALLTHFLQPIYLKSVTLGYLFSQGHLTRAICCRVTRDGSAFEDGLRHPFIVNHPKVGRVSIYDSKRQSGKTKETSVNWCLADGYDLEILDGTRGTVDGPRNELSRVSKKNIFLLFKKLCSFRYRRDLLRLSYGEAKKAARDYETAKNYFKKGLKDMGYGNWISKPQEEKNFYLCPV
# UniProt P55735: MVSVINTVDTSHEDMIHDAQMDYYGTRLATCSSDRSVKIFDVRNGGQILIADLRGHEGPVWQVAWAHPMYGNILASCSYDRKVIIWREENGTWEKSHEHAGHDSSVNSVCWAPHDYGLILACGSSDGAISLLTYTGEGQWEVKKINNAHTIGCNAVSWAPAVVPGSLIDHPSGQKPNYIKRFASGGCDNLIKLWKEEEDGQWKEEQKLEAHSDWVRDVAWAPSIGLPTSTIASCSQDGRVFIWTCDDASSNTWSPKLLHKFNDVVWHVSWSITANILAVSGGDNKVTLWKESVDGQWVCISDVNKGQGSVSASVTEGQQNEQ
# UniProt P62877, whole entry, looked up: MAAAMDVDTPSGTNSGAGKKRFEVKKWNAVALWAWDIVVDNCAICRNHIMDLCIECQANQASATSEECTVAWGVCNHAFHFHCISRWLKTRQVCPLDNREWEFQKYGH
# UniProt P55771: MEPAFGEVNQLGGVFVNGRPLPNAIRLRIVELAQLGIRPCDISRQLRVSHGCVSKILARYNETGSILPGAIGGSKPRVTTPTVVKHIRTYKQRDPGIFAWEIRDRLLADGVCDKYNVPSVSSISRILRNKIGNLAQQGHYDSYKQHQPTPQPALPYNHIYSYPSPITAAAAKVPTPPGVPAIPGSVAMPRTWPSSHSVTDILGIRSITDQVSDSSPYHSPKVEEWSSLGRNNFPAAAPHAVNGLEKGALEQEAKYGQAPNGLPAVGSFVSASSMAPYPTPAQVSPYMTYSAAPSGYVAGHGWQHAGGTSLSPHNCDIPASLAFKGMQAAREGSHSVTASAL
# UniProt P98179: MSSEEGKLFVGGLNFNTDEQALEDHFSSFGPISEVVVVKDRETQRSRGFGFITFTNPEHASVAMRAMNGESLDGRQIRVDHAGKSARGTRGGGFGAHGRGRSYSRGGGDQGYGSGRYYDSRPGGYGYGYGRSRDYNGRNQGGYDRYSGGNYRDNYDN
# UniProt P62328: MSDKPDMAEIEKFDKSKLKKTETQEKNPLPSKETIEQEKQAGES
# UniProt P61081: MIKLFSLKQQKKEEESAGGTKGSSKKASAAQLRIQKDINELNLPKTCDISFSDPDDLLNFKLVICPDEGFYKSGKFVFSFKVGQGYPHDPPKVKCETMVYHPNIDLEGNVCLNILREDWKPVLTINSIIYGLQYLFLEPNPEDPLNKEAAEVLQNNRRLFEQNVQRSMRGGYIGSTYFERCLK
# UniProt P83876: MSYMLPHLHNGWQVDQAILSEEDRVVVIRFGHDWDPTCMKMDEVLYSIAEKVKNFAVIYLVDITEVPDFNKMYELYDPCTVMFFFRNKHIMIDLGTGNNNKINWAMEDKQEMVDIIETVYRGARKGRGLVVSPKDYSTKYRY
# UniProt P62633: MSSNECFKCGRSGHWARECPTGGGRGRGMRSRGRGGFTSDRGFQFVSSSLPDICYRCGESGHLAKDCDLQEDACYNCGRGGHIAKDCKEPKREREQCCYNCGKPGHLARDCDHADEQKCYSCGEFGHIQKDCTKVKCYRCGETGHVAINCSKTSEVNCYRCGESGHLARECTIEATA
# UniProt P78346: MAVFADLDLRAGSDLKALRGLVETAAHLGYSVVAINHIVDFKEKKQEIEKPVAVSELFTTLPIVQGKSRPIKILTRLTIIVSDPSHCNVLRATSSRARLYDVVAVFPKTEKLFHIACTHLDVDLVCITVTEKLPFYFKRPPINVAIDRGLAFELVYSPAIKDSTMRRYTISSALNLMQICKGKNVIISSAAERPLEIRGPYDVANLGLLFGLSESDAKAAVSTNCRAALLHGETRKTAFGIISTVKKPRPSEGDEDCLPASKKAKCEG
# UniProt P63279, whole entry: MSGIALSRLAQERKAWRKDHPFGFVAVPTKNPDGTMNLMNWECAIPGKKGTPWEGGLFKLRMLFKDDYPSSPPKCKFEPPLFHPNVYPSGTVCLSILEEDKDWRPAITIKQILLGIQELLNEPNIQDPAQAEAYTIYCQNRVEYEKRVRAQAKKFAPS
# UniProt P54725: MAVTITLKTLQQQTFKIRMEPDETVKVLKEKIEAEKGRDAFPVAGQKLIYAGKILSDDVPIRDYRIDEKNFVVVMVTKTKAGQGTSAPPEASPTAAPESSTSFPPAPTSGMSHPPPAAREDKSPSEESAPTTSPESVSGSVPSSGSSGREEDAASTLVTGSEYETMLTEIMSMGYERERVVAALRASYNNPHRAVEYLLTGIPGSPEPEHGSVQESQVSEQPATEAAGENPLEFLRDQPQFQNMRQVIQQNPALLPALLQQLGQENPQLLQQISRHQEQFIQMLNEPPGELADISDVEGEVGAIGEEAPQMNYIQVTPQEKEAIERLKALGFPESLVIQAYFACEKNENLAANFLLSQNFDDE
# UniProt P55899: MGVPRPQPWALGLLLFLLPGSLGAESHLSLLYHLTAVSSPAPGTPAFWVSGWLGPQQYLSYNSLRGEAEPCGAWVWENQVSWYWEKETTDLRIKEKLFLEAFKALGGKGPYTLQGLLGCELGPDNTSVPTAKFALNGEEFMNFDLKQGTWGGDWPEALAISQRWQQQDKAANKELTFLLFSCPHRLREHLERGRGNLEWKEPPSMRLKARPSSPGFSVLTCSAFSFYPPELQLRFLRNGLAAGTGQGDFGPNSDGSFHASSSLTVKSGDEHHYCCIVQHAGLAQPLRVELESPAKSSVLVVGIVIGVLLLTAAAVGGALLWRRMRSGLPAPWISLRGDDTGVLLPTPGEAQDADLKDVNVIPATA
# UniProt P53671: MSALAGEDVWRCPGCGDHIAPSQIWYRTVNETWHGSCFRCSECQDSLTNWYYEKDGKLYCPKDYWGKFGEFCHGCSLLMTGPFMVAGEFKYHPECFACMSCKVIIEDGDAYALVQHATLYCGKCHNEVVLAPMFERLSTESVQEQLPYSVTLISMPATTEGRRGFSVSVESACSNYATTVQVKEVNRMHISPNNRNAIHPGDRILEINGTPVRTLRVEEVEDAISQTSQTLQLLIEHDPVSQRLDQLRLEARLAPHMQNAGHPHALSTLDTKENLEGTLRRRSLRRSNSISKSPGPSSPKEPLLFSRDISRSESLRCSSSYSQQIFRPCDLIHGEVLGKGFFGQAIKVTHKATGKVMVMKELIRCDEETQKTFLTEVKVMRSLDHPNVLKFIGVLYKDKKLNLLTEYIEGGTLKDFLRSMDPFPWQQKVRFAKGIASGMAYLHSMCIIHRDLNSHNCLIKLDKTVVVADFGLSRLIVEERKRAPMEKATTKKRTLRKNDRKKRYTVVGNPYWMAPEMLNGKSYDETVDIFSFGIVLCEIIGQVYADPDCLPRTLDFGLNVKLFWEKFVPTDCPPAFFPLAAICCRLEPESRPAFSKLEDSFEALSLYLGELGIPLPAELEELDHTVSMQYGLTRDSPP
# ± gives the standard deviation of the averaged measurements. The list shows a part of the results, in another mix than the full data. Small differences around the control level are noise.
# Compound: Nc1ncnc2c1ncn2[C@@H]1O[C@H](COP(=O)(O)OP(=O)(O)OP(=O)(O)O)[C@@H](O)[C@H]1O [adenosine triphosphate]
# Test: NP40-soluble protein abundance relative to vehicle (solubility fold change) (ratio); higher = more soluble protein in presence of ATP
# Method in brief: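 Jurkat crude lysate (Dounce-homogenised) was treated with eight concentrations from 0.1 to 10 mM for 10 min at room temperature, then 3 min at 37 °C. It was solubilised with 0.8% NP40 and benzonase (60 min, 4 °C) and ultracentrifuged, and the supernatant was TMT-labelled for LC-MS/MS. Intensities were vsn-normalised, and the value is the fold change against the NP40-processed vehicle per replicate, from three independent experiments.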
Target,NP40-soluble protein abundance (concentration: 0.1mM),NP40-soluble protein abundance (concentration: 0.5mM)
PGGT1B (UniProt P53609),1.02 ± 0.045,0.972 ± 0.13
PEX3 (UniProt P56589),1.04 ± 0.07,1.02 ± 0.066
MAT1A (UniProt Q00266),1.09 ± 0.091,1.02 ± 0.13
UniProt P84103 and related entries,1.07 ± 0.014,1.239 ± 0.0066
UniProt P56181 and related entries,0.963 ± 0.044,0.969 ± 0.044
UniProt P62241,0.908 ± 0.078,0.861 ± 0.065
FKBP1A (UniProt P62942),1 ± 0.041,0.984 ± 0.057
ACTR3 (UniProt P61158),1.1 ± 0.085,1.04 ± 0.05
UniProt P82970,0.915 ± 0.049,1.03 ± 0.085
UniProt P62195 and related entries,1.01 ± 0.029,0.966 ± 0.034
MFAP1 (UniProt P55081),0.995 ± 0.067,1.06 ± 0.041
MRPS6 (UniProt P82932),0.846 ± 0.15,0.861 ± 0.17
CEBPG (UniProt P53567),1.09 ± 0.081,1.01 ± 0.069
RPP38 (UniProt P78345),0.941 ± 0.027,0.944 ± 0.055
UniProt P61960,0.967 ± 0.097,0.943 ± 0.16
CLNS1A (UniProt P54105),0.917 ± 0.077,0.872 ± 0.079
UniProt P63010 and related entries,0.986 ± 0.057,1.09 ± 0.028
CTSC (UniProt P53634),0.98 ± 0.062,1.02 ± 0.099
GTF2B (UniProt Q00403),1.002 ± 0.0091,1 ± 0.012
NOP14 (UniProt P78316),0.956 ± 0.02,0.966 ± 0.034
UniProt P61966,0.969 ± 0.048,0.942 ± 0.12
UniProt P63000 and related entries,1.05 ± 0.071,1.03 ± 0.071
UniProt P67936 and related entries,0.889 ± 0.11,0.77 ± 0.28
UniProt P61088,0.964 ± 0.032,0.897 ± 0.1

# Full records from above.
# NOP14 (UniProt P78316) is listed as NP40-soluble protein abundance (concentration: 0.1mM): 0.956 ± 0.02; NP40-soluble protein abundance (concentration: 0.5mM): 0.966 ± 0.034
# MAT1A (UniProt Q00266) is listed as NP40-soluble protein abundance (concentration: 0.1mM): 1.09 ± 0.091; NP40-soluble protein abundance (concentration: 0.5mM): 1.02 ± 0.13
# UniProt P67936 and related entries is listed as NP40-soluble protein abundance (concentration: 0.1mM): 0.889 ± 0.11; NP40-soluble protein abundance (concentration: 0.5mM): 0.77 ± 0.28
# UniProt P61966 is listed as NP40-soluble protein abundance (concentration: 0.1mM): 0.969 ± 0.048; NP40-soluble protein abundance (concentration: 0.5mM): 0.942 ± 0.12

# (cont.)

Target,NP40-soluble protein abundance (concentration: 0.1mM),NP40-soluble protein abundance (concentration: 0.5mM)
UniProt P68366 and related entries,1.04 ± 0.13,1.04 ± 0.054
DYNLT1 (UniProt P63172),0.922 ± 0.069,0.992 ± 0.08
MTPN (UniProt P58546),0.862 ± 0.12,0.784 ± 0.075
YBX1 (UniProt P67809),0.966 ± 0.049,0.976 ± 0.018
UniProt P61024 and related entries,0.938 ± 0.042,1.03 ± 0.075
UniProt P62380 and related entries,0.911 ± 0.01,0.917 ± 0.17
UniProt P62995 and related entries,0.941 ± 0.12,1.13 ± 0.14
UniProt P62834,1.02 ± 0.049,1.07 ± 0.077
UniProt P62258,0.951 ± 0.012,0.945 ± 0.021
UniProt P60763,1.02 ± 0.026,1.05 ± 0.051
RRP1 (UniProt P56182),0.994 ± 0.025,1.02 ± 0.025
B2M (UniProt P61769),0.984 ± 0.049,1 ± 0.018
UniProt P63167,0.972 ± 0.12,1.02 ± 0.077
UniProt P78563 and related entries,1.07 ± 0.085,1.08 ± 0.052
UniProt P55265 and related entries,1.04 ± 0.04,1.07 ± 0.041
MARS (UniProt P56192),0.97 ± 0.05,0.993 ± 0.069
UniProt P61160,1.02 ± 0.056,1.06 ± 0.051
UniProt P78356,1.02 ± 0.021,1.02 ± 0.024
UniProt P62491,1.15 ± 0.17,1.18 ± 0.1
UniProt P61927,0.917 ± 0.041,0.875 ± 0.044
UniProt P63244,0.978 ± 0.011,0.946 ± 0.044
UniProt P56202 and related entries,1 ± 0.038,1.01 ± 0.086
UniProt P61978 and related entries,0.9907 ± 0.0099,0.986 ± 0.031
ITGA1 (UniProt P56199),0.934 ± 0.066,0.911 ± 0.035

Target,NP40-soluble protein abundance (concentration: 0.1mM),NP40-soluble protein abundance (concentration: 0.5mM)
CASP9 (UniProt P55211),1.07 ± 0.031,1.05 ± 0.092
RPL7A (UniProt P62424),0.985 ± 0.062,0.945 ± 0.054
TFAM (UniProt Q00059),0.845 ± 0.18,0.809 ± 0.23
EIF5 (UniProt P55010),1.01 ± 0.024,1.05 ± 0.06
MRPS36 (UniProt P82909),0.94 ± 0.17,0.921 ± 0.13
METAP1 (UniProt P53582),1.08 ± 0.063,1.15 ± 0.11
SEC13 (UniProt P55735),1.05 ± 0.075,1.05 ± 0.024
UniProt Q00537 and related entries,0.988 ± 0.065,1.14 ± 0.044
UniProt P62877,0.962 ± 0.068,0.98 ± 0.023
UniProt P62244 and related entries,0.89 ± 0.1,0.852 ± 0.1
UniProt P55771,0.929 ± 0.27,0.878 ± 0.18
UniProt P55957 and related entries,0.903 ± 0.14,0.888 ± 0.12
AP1S2 (UniProt P56377),1.01 ± 0.018,1.02 ± 0.063
COG7 (UniProt P83436),0.952 ± 0.053,0.947 ± 0.038
IGBP1 (UniProt P78318),0.957 ± 0.1,0.927 ± 0.1
RAB8A (UniProt P61006),0.983 ± 0.048,1.02 ± 0.051
RBM3 (UniProt P98179),0.947 ± 0.038,0.977 ± 0.034
UniProt P63272,1.03 ± 0.063,0.968 ± 0.056
UniProt P62269,0.872 ± 0.14,0.83 ± 0.15
UniProt P78347 and related entries,0.9779 ± 0.0067,0.994 ± 0.024
P86790 and related entries (UniProt P86791+P86790),1.06 ± 0.042,1.07 ± 0.057
UniProt P54687 and related entries,1.06 ± 0.078,1.03 ± 0.084
TMSB4X (UniProt P62328),0.981 ± 0.11,0.884 ± 0.09
PPP1CA (UniProt P62136),0.983 ± 0.036,0.995 ± 0.057

Target,NP40-soluble protein abundance (concentration: 0.1mM),NP40-soluble protein abundance (concentration: 0.5mM)
UniProt P61962,1.07 ± 0.062,1.12 ± 0.057
UniProt P61081,1.01 ± 0.045,1 ± 0.029
NAA20 (UniProt P61599),1.12 ± 0.16,1.03 ± 0.13
PMS2 (UniProt P54278),1.16 ± 0.052,1.2 ± 0.012
UniProt P61604 and related entries,0.91 ± 0.067,0.888 ± 0.039
UniProt P54136 and related entries,1.03 ± 0.045,1.04 ± 0.023
UniProt P83876,1.09 ± 0.077,1.17 ± 0.14
S100A10 (UniProt P60903),0.918 ± 0.078,0.871 ± 0.19
UniProt P61956,0.831 ± 0.072,0.829 ± 0.13
UniProt P62633 and related entries,1.06 ± 0.061,1.02 ± 0.058
UniProt P56270-2,0.989 ± 0.029,1 ± 0.02
FKBP3 (UniProt Q00688),0.956 ± 0.036,0.995 ± 0.028
MRPS5 (UniProt P82675),0.97 ± 0.092,1.01 ± 0.083
NCS1 (UniProt P62166),1.08 ± 0.039,0.994 ± 0.0034
UniProt P78346 and related entries,1.01 ± 0.11,1.02 ± 0.07
UniProt P61981,0.977 ± 0.17,0.741 ± 0.14
UniProt Q00536 and related entries,0.978 ± 0.025,0.997 ± 0.028
UniProt P62273,0.81 ± 0.18,0.771 ± 0.17
UniProt P62306,0.9 ± 0.018,0.934 ± 0.15
USP14 (UniProt P54578),1 ± 0.042,1.02 ± 0.03
UniProt P57768 and related entries,1.04 ± 0.041,1.01 ± 0.036
UniProt P78362-2|P78362,1.04 ± 0.062,1.04 ± 0.044
COPB1 (UniProt P53618),1.03 ± 0.068,1.04 ± 0.029
RPL10A (UniProt P62906),1.02 ± 0.036,1.06 ± 0.038

Target,NP40-soluble protein abundance (concentration: 0.1mM),NP40-soluble protein abundance (concentration: 0.5mM)
SRP54 (UniProt P61011),0.988 ± 0.024,1.01 ± 0.066
UniProt P63279,0.922 ± 0.11,0.929 ± 0.11
UniProt P98194-5|P98194-6|P98194-7|P98194-8|P98194-9|B4E2Q0 and related entries,1.11 ± 0.068,1.06 ± 0.089
DCD (UniProt P81605),1.25 ± 0.93,1.52 ± 0.16
UniProt P61313,0.988 ± 0.11,0.959 ± 0.098
UniProt P62330,1.06 ± 0.097,1.08 ± 0.081
UniProt P62888,0.932 ± 0.16,0.896 ± 0.15
UniProt P62879,1.01 ± 0.021,0.985 ± 0.021
UniProt P54725 and related entries,0.891 ± 0.036,0.857 ± 0.08
UniProt P68036,0.935 ± 0.16,0.906 ± 0.14
UniProt P55347 and related entries,1.01 ± 0.032,1.02 ± 0.096
UniProt P55899 and related entries,0.936 ± 0.095,0.897 ± 0.085
PURA (UniProt Q00577),0.95 ± 0.035,0.984 ± 0.07
UniProt P62851,0.823 ± 0.19,0.812 ± 0.26
RPS27A (UniProt P62979),0.914 ± 0.2,0.905 ± 0.2
GSTO1 (UniProt P78417),0.987 ± 0.036,0.976 ± 0.072
UniProt P63146,0.941 ± 0.12,0.988 ± 0.061
GMFB (UniProt P60983),0.993 ± 0.1,0.963 ± 0.057
UniProt P53671 and related entries,1.09 ± 0.018,1.1 ± 0.038
UniProt P78410 and related entries,0.994 ± 0.042,0.944 ± 0.041
RABGGTB (UniProt P53611),1.09 ± 0.1,1.09 ± 0.1
UniProt P61289 and related entries,0.902 ± 0.011,0.712 ± 0.28
UniProt P63220 and related entries,0.877 ± 0.14,0.834 ± 0.15
UniProt P53365 and related entries,0.975 ± 0.021,0.952 ± 0.027
